Results are given in words; binding and its absence hold for the method and conditions named. For some of these results: Binding seen in cells or lysates may run through a third protein. Some results given as binding are weak or reduced against the parent protein; the word gives no strength. For some of these results: Tags and fused reporters may be left off the sequences shown.

Sequences of proteins named here, by UniProt entry; tags and fusion partners are left off.
UniProt Q9FGZ4: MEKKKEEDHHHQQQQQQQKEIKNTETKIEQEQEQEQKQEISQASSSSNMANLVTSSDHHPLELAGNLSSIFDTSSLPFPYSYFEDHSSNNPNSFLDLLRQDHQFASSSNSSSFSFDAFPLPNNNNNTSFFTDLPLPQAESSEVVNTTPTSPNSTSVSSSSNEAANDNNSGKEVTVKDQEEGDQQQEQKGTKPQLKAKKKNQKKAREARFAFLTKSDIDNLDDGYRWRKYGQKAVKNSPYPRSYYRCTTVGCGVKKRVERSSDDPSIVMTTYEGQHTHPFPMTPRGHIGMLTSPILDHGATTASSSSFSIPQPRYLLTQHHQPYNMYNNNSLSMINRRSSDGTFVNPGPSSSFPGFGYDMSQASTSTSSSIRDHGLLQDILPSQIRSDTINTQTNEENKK

Assay [1] has as its target T1, MPK3 (endogenous, Arabidopsis) (Arabidopsis thaliana (endogenous in Arabidopsis leaves)) (UniProt Q39023).
T1 sequence: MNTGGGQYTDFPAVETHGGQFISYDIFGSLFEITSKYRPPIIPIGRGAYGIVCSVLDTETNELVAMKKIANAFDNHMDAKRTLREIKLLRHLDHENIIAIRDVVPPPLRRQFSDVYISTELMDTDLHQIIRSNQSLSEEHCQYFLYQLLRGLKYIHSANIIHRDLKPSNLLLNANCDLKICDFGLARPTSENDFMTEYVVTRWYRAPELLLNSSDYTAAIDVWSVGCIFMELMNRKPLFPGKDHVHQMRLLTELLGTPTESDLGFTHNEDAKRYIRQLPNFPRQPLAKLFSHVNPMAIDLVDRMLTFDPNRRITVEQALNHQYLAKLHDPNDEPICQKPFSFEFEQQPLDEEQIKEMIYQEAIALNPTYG
Description: co-IP.

The target in assay [2] is T2, MPK3-nEYFP (BiFC fusion) (Arabidopsis thaliana) (UniProt Q39023).
T2 sequence: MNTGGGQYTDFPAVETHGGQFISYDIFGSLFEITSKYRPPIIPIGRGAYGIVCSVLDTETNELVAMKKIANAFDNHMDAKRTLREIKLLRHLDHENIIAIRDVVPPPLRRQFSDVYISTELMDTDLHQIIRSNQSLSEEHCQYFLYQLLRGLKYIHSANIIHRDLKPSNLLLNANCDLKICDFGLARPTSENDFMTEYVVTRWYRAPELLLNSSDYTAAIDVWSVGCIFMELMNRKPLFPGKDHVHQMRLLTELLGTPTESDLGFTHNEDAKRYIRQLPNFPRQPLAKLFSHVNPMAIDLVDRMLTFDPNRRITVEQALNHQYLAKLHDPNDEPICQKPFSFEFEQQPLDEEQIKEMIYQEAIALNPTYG
Nature of the assay: split reporter.

The target of assay [3] is T3, MPK3-nluc (split luciferase fusion, pCAMBIA1300-nluc-MPK3) (Arabidopsis thaliana) (UniProt Q39023).
T3 sequence: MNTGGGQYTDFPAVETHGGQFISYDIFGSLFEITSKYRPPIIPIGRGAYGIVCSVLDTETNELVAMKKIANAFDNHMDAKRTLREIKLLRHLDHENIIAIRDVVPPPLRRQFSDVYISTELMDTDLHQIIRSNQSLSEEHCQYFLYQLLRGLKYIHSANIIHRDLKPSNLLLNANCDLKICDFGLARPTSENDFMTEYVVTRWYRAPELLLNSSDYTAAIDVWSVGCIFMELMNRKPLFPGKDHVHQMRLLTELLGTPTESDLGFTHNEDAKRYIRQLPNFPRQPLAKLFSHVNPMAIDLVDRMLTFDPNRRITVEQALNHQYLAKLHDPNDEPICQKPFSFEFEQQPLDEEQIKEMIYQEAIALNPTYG
Description: split reporter.

Assay [4] addresses WRKY48 (pGBKT7-WRKY48, yeast two-hybrid bait) (Arabidopsis thaliana) (UniProt Q9FGZ4). Description: two-hybrid.

With “WRKY48-GFP (35S::WRKY48-GFP) (from UniProt Q9FGZ4 1-399)”, the binding entry in assay [1] was “binds”.

In the case of “WRKY48-cEYFP (BiFC fusion) (from UniProt Q9FGZ4 1-399)”, the binding entry in assay [2] was “binds”.

For “WRKY48-cluc (split luciferase fusion, pCAMBIA1300-cluc-WRKY48) (from UniProt Q9FGZ4 1-399)”, the binding entry in assay [3] was “binds”.

B1: GST-MPK3 (recombinant) (enzyme, Arabidopsis thaliana, UniProt Q39023 1-370, looked up)
chain: MNTGGGQYTDFPAVETHGGQFISYDIFGSLFEITSKYRPPIIPIGRGAYGIVCSVLDTETNELVAMKKIANAFDNHMDAKRTLREIKLLRHLDHENIIAIRDVVPPPLRRQFSDVYISTELMDTDLHQIIRSNQSLSEEHCQYFLYQLLRGLKYIHSANIIHRDLKPSNLLLNANCDLKICDFGLARPTSENDFMTEYVVTRWYRAPELLLNSSDYTAAIDVWSVGCIFMELMNRKPLFPGKDHVHQMRLLTELLGTPTESDLGFTHNEDAKRYIRQLPNFPRQPLAKLFSHVNPMAIDLVDRMLTFDPNRRITVEQALNHQYLAKLHDPNDEPICQKPFSFEFEQQPLDEEQIKEMIYQEAIALNPTYG
As for B1, in assay [4], the binding result is “binds”.

These data come from doi:10.1101/2025.05.21.655431 (bioRxiv, 2025).
